Results deposited as PubChem BioAssay AID1259308 (NCATS, 2017).

- Purpose: 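Candidate targets for better recombinant protein yield in mammalian cells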 (primary screen)
- Cells: human HEK293 embryonic kidney cells stably expressing firefly luciferase (HEK-CMV-Luc2-Hygro)
- Knock-down reagent: single siRNA against human genes, 0.8 pmol siRNA per well
- Timing: 72 h
- Measured: 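Reporter luminescence and viable-cell signal on separate replicate plates, given as percent of non-targeting control and median/MAD z-scores, plus per-cell luciferase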
- Reading the numbers: total luciferase, z-score and total luciferase, % of control: higher = more reporter protein produced; luciferase per cell, z-score: higher = more reporter output per viable cell; viable cells, % of control: higher = more viable cells
- Active means: 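An siRNA counts as active if its total luciferase robust z-score exceeds 3; genes with two or more such siRNAs out of three were retested with fresh siRNAs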
- Calls: active = raised luciferase; inactive = no rise
The deposit covers about 59,000 reagents; below is a random part of them. About 1,510 of them (2.6%) count as active. 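Calls use total luciferase alone and ignore viability, so some active siRNAs may act by altering cell number.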 Unmarked entries are inactive. The numbers tell different reagents against one gene apart. Reagent sequences are not shown.

gene symbol | siRNA no. | total luciferase, z-score | total luciferase, % of control | luciferase per cell, z-score | viable cells, % of control
PLD6 | 1 | -1.14 | 59.2 | -0.23 | 70.3
PLD6 | 2 | 0.254 | 86.9 | 1.66 | 62.8
PLD6 | 3 | 0.641 | 94.6 | 1.38 | 73.5
ACTR1B | 1 | -0.0208 | 81.5 | -0.812 | 113
ACTR1B | 2 | 0.64 | 94.6 | 0.391 | 95.4
ACTR1B | 3 | -0.0997 | 79.9 | 0.994 | 68.7
HTR5A | 1 | -0.107 | 79.8 | 0.547 | 77.2
HTR5A | 2 | -0.726 | 67.4 | -0.654 | 89.5
HTR5A | 3 | 0.87 | 99.2 | 0.773 | 90.4
BTAF1 | 1 | -0.633 | 69.3 | -0.932 | 99
BTAF1 | 2 | -0.752 | 66.9 | -0.94 | 95.8
BTAF1 | 3 | -0.102 | 79.9 | 0.768 | 72.9
FAM20B | 1 | -2.14 | 39.3 | -2.06 | 75.5
FAM20B | 2 | -0.282 | 76.3 | 0.279 | 79.2
FAM20B | 3 | -1.32 | 55.5 | -1.17 | 84.4
DNAH9 | 1 | -0.249 | 76.9 | 0.0518 | 84.8
DNAH9 | 2 | -0.0735 | 80.4 | -0.47 | 102
DNAH9 | 3 | 0.406 | 90 | 0.179 | 95.9
TP53AIP1 | 1 | -2.29 | 36.4 | -2.64 | 81.5
TP53AIP1 | 2 | 0.635 | 94.5 | 0.587 | 90.5
TP53AIP1 | 3 | 0.812 | 98 | 0.662 | 92
TRPC1 | 1 | 1.34 | 109 | 0.614 | 103
TRPC1 | 2 | 0.235 | 86.6 | -0.129 | 100
TRPC1 | 3 | 1.73 | 116 | 0.587 | 111
HOMER2 | 1 | 0.0283 | 82.4 | 0.079 | 90.2
HOMER2 | 2 | -0.516 | 71.6 | -0.448 | 90
HOMER2 | 3 | -1.56 | 50.9 | -0.683 | 68.1
RNF40 | 1 | -1.46 | 52.9 | -1.51 | 88
RNF40 | 2 | -1.78 | 46.5 | -0.635 | 61.4
RNF40 | 3 | -1.25 | 57.1 | -0.781 | 78.4
ST3GAL5 | 1 | -2.64 | 29.3 | -3.86 | 90.5
ST3GAL5 | 2 | 0.143 | 84.7 | -0.318 | 103
ST3GAL5 | 3 | 0.279 | 87.4 | 0.153 | 93.8
AAK1 | 1 | -0.326 | 75.4 | -0.143 | 87.5
AAK1 | 2 | -0.234 | 77.2 | -0.0181 | 86.7
AAK1 | 3 | -0.471 | 72.5 | -0.048 | 82.1
ZNF584 | 1 | -0.899 | 64 | 0.373 | 64.8
ZNF584 | 2 | 0.968 | 101 | 1.08 | 85.1
ZNF584 | 3 | 1.5 | 112 | 1.2 | 91
POLR2G | 1 | -2.47 | 32.8 | -1.93 | 61
POLR2G | 2 | -2.93 | 23.7 | -3.06 | 59.2
POLR2G | 3 | -2.99 | 22.4 | -4.05 | 72.7
SLC25A35 | 1 | 0.221 | 86.3 | 0.58 | 82.8
SLC25A35 | 2 | 0.561 | 93.1 | 0.0488 | 103
SLC25A35 | 3 | -1.13 | 59.4 | -1.4 | 96
RGS18 | 1 | 0.819 | 98.2 | 1.48 | 74.3
RGS18 | 2 | 0.28 | 87.5 | -0.0825 | 99.9
RGS18 | 3 | 0.932 | 100 | 1.12 | 83.5
EIF5B | 1 | -1.01 | 61.8 | -0.657 | 82.1
EIF5B | 2 | -0.147 | 79 | -0.858 | 111
EIF5B | 3 | 1.86 | 119 | 1.79 | 83
SLC3A1 | 1 | -0.742 | 67.1 | -0.413 | 83.6
SLC3A1 | 2 | 0.142 | 84.7 | -0.152 | 98.5
SLC3A1 | 3 | -0.282 | 76.3 | -0.077 | 87
MKRN1 | 1 | 0.366 | 89.2 | -0.0504 | 101
MKRN1 | 2 | -0.105 | 79.8 | -0.303 | 96.6
MKRN1 | 3 | -0.616 | 69.6 | 0.0528 | 76.7
